PubChem BioAssay AID686937 – Drosophila RNAi Screening Center – 2013

- Test: 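Genes in the fly needed for secretion of protein constitutively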 (primary screen)
- Cell system: Drosophila S2 cells expressing secreted horseradish peroxidase
- Reagent: long dsRNA against Drosophila genes
- Timing: about 5.5 days (5 days dsRNA, then 12 h reporter induction)
- Challenge: reporter expression induced after 5 days of dsRNA, read 12 h later; inducer not stated
- Measurement: 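Chemiluminescent measurement of peroxidase in the medium 12 h after reporter induction, following 5 days of dsRNA, given as a z-score per plate; higher means more secretion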
- Scale: z-score: higher = more reporter secreted into medium
In all, the deposit lists about 23,000 reagents; this is an unselected part of those with a known target gene and a result. 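Reduced-secretion tags in replicate 1 do not always agree with the z-scores; no criterion for assigning the tags was given.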 Not all columns of the deposit are shown. No sequences are given here. The record does not give: the amount of reagent.

After knock-down of CG3534, the record shows z-score, replicate 1 = 0.3. After knock-down of anne, the record shows z-score, replicate 1 = -3.23. hui scored z-score, replicate 1 = 0.68. After knock-down of Cpsf160 the results were z-score, replicate 1 = -0.16. Aprt scored z-score, replicate 1 = 0.12. For CG6431, the values are z-score, replicate 1 = -0.08.

After knock-down of Rchy1 the results were z-score, replicate 1 = 0.11. Against CG12231, the values are z-score, replicate 1 = -0.21. After knock-down of PDCD-5, the screen gave z-score, replicate 1 = 0.46. With knock-down of Pyroxd1 the results were z-score, replicate 1 = 0.13. Knock-down of CG14262 came out at: z-score, replicate 1 = 0.25. Depletion of mRpL35 resulted in: z-score, replicate 1 = 0.17.

Against y the deposit lists z-score, replicate 1 = 0.18. Knock-down of CG13323 resulted in: z-score, replicate 1 = 0. For Or47b, the entry reads z-score, replicate 1 = 0.37. For Nuf2, the entry reads z-score, replicate 1 = -0.13.
